Experimental data: PubChem BioAssay AID686937 (Drosophila RNAi Screening Center, 2013)
Screen: 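Genes whose loss weakens secretory pathway function in fly cells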 (primary screen). Cells: Drosophila S2 cells expressing secreted horseradish peroxidase. Knock-down reagent: long dsRNA against Drosophila genes. Time to read-out: about 5.5 days (5 days dsRNA, then 12 h reporter induction). Conditions: reporter expression induced after 5 days of dsRNA, read 12 h later; inducer not stated. Measured: 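After 5 days of dsRNA and 12 h of reporter induction, medium peroxidase read by chemiluminescence and scored as per-plate z-score; higher values mean more reporter released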. Direction: z-score: higher = more reporter secreted into medium.
The deposit covers about 23,000 reagents; below is an unselected part of those with a known target gene and a result. 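Reduced-secretion tags in replicate 1 do not always agree with the z-scores; no criterion for assigning the tags was given.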 Further read-outs or replicates are left out here. Not given: the amount of reagent.

z-score, replicate 1, by gene knocked down and reagent
CG32052 (GeneID 326184): DRSC10966 0.41
CG42826 (GeneID 10178905): DRSC10682 0.26
casp (GeneID 36769): DRSC07164 -0.05
Su(var)2-HP2 (GeneID 36621): DRSC06204 0.4
CG13070 (GeneID 39782): DRSC09953 0.27
CAH2 (GeneID 39390): DRSC10746 0.46
nes (GeneID 40093): DRSC11375 0.43
Sr-CIII (GeneID 44382): DRSC22262 -1.33
dysf (GeneID 43174): DRSC14529 0.29; DRSC14895 -1.02; DRSC14896 0.25; DRSC14897 -4.56
mthl9 (GeneID 38056): DRSC08506 0.36
CG14443 (GeneID 31595): DRSC17936 0.31
Rbbp5 (GeneID 40239): DRSC11778 0.29
Egm (GeneID 36242): DRSC07319 0.3; DRSC22860 0.8
CG14856 (GeneID 41790): DRSC14980 0.35
CG17739 (GeneID 36333): DRSC06689 0.37
CG14411 (GeneID 32408): DRSC19597 0.32
CG11123 (GeneID 35664): DRSC06040 0.29
CG30377 (GeneID 50252): DRSC06477 0.4; DRSC06799 0.42
CG30094 (GeneID 246452): DRSC22268 -0.7
Hr38 (GeneID 35332): DRSC03345 0.64
Theg (GeneID 42585): DRSC16023 0.4
CG3436 (GeneID 33180): DRSC00605 -0.17
CG2202 (GeneID 32014): DRSC19841 -2.1
Kua (GeneID 35300): DRSC02100 0.29

Ordered by “z-score, replicate 1” (ascending): some entries from above.
gene knocked down	dsRNA	z-score, replicate 1
dysf (GeneID 43174)	DRSC14897	-4.56
dysf (GeneID 43174)	DRSC14896	0.25
Rbbp5 (GeneID 40239)	DRSC11778	0.29
Egm (GeneID 36242)	DRSC07319	0.3
CG14443 (GeneID 31595)	DRSC17936	0.31
CG14856 (GeneID 41790)	DRSC14980	0.35
mthl9 (GeneID 38056)	DRSC08506	0.36
Egm (GeneID 36242)	DRSC22860	0.8

Further records:
z-score, replicate 1, by gene knocked down and reagent
CG7239 (GeneID 33809): DRSC03038 -0.22
CG2750 (GeneID 32179): DRSC19867 0.67
CG11655 (GeneID 32472): DRSC19413 0.46
TTLL3A (GeneID 33947): DRSC02143 0.35
tkv (GeneID 33753): DRSC00860 -0.37; DRSC03623 0.28; DRSC22606 -0.24
Boh2 (GeneID 34559): DRSC02777 0.19
Rack1 (GeneID 34070): DRSC03405 0.52
otu (GeneID 31789): DRSC18811 0.34
Ssrp (GeneID 37767): DRSC04658 0.15
ND-42 (GeneID 42591): DRSC16754 0.17
CG34007 (GeneID 3885610): DRSC01790 -0.06
kdn (GeneID 31579): DRSC18328 0.36
beta-PheRS (GeneID 42888): DRSC15859 -0.21
CG14207 (GeneID 32955): DRSC19562 0.47; DRSC19563 0.07
CG3529 (GeneID 39093): DRSC10369 0.34
Xrp1 (GeneID 42267): DRSC15282 -2.53; DRSC15283 0.44
CG30419 (GeneID 37879): DRSC04208 -0.39; DRSC04209 0.19; DRSC22519 1.67
parvin (GeneID 32990): DRSC19468 0.44
Pdp (GeneID 31683): DRSC17825 0.33
CG14903 (GeneID 42014): DRSC15024 0.15
eIF4G2 (GeneID 42819): DRSC14207 0.2; DRSC21739 -0.59
